Experimental data taken from the supplement of paper PMC5949888.
Most values lie at the floor of the assay. Slopes are relative: functional sequences can read slightly below zero.

Each substance was assayed on Saccharomyces cerevisiae PS128 hsf1 delta, HSF1(1-493) fusion (assay: growth estimate (transactivation domain function in HSF1 fusion, heat-shock survival) (a.u. (slope of normalised read count over time)); higher = stronger growth at 37°C, i.e. more transactivation activity). Conditions: library: random library.

| Substance | growth estimate |
| --- | --- |
| LMKLPRSRR | < -0.25 |
| LMLANRQPTERRGVKVRRTP | < -0.25 |
| LMNW | < -0.25 |
| LMSVKRFWI | -0.148 |
| LMTGSCG | < -0.25 |
| LMYSEIWRNS | < -0.25 |
| LNACKNRRGRLLMGSFLTAV | < -0.25 |
| LNAGCSCRVTRQ | < -0.25 |
| LNAGPARPYAYLT | < -0.25 |
| LNALRLWPCACGGIPVPAVE | < -0.25 |
| LNCQRALWRER | < -0.25 |
| LNEAKHESKLLLEVRECLVA | < -0.25 |
| LNFMLSADGTTKRTVTGRDG | < -0.25 |
| LNFWTPEYQPSRVIITIQAC | < -0.25 |
| LNGCHSGRKRSALWFPGAEG | < -0.25 |
| LNGCINST | < -0.25 |
| LNGSGSSVLAKACRRRVARI | < -0.25 |
| LNGTSSCRLNVFQCGG | < -0.25 |
| LNGVGAIQSAQNQARIRHHK | < -0.25 |
| LNGYVQLRWVRGLGPNPWML | -0.245 |
| LNGYVTQVVGLGRAKPHGIC | < -0.25 |
| LNICGEQKDGVDWGRGKSRR | < -0.25 |
| LNKEGYTLPHPS | -0.243 |
| LNKSPRESGRHINANTTSQR | < -0.25 |
| LNKY | < -0.25 |

| Substance | growth estimate |
| --- | --- |
| LNNKDCKIFCCEKCDFKCEA | < -0.25 |
| LNNRGSCTMILIGKPR | < -0.25 |
| LNPRMCENCSLDSGGWSIPR | < -0.25 |
| LNRCAIE | < -0.25 |
| LNREYL | < -0.25 |
| LNRGLWVWCTPAPPGFHPSP | < -0.25 |
| LNRNVSHTASDGIAEYKAAV | < -0.25 |
| LNRPGC | < -0.25 |
| LNRSTVCSLAGIGGSDWCTS | -0.248 |
| LNRTMSWLVDTIRPFRN | < -0.25 |
| LNSPGDRCKEGGQ | < -0.25 |
| LNSTGEAGIDHVSWVY | < -0.25 |
| LNTHETAGLPKGSISS | < -0.25 |
| LNTLRQGICGTSSSAY | < -0.25 |
| LNTV | < -0.25 |
| LNVAPDDCGRRM | < -0.25 |
| LNVMRFTSFSWQPC | < -0.25 |
| LNVSMEGVGRRIIAAHPQRP | < -0.25 |
| LNWGFG | < -0.25 |
| LNYS | < -0.25 |
| LPA | < -0.25 |
| LPAHT | < -0.25 |
| LPARVRGQRSGRLGTRGHMP | < -0.25 |
| LPATLYRVSTTIVGGASQ | < -0.25 |
| LPC | < -0.25 |

| Substance | growth estimate |
| --- | --- |
| LPD | < -0.25 |
| LPDASESTLDFPIV | < -0.25 |
| LPDGAERPILAAMVWSLRLD | < -0.25 |
| LPDRMVRGV | < -0.25 |
| LPELRRSVGPRWANSFSV | -0.245 |
| LPESRQVWSSIIERSVLPGT | < -0.25 |
| LPEVRFRESCVQPNV | < -0.25 |
| LPFGLGVVRPAIGSFNPNEY | < -0.25 |
| LPGCLRGLVLFRPYSCRVLA | < -0.25 |
| LPGEPNGEVAGITTVIRGNA | -0.246 |
| LPGGDEGPIKEGSDCGPDRA | < -0.25 |
| LPGKPSVSRG | < -0.25 |
| LPGRPTDCIRLTASVEELSR | < -0.25 |
| LPGWKPPPILRTALPHISRG | < -0.25 |
| LPH | < -0.25 |
| LPHLTRPSPKGGIV | < -0.25 |
| LPHRREPMGLLWILRHR | < -0.25 |
| LPIETLDLGNIQGCRDTASL | < -0.25 |
| LPIGLISLLGPVLGTCCRTV | < -0.25 |
| LPKPGRGVVWPSTHQDVRSD | < -0.25 |
| LPKSQCVCPPLGSPVGVLGI | < -0.25 |
| LPKSRGVSFPFRNTRRSIHI | < -0.25 |
| LPKTWRVADCTGNASAYCGV | < -0.25 |
| LPLHVSLAGCKEVRLV | < -0.25 |
| LPLP | < -0.25 |

Some of the entries so far, as tab-separated lines.
Substance	growth estimate
LNNKDCKIFCCEKCDFKCEA	< -0.25
LNNRGSCTMILIGKPR	< -0.25
LNPRMCENCSLDSGGWSIPR	< -0.25
LNRCAIE	< -0.25
LNREYL	< -0.25

Additional results:

| Substance | growth estimate |
| --- | --- |
| LPLSALGTMV | < -0.25 |
| LPLTFLQEGGILGVVSSAHP | < -0.25 |
| LPMIEWGVL | < -0.25 |
| LPMVWNKGLM | < -0.25 |
| LPNL | < -0.25 |
| LPPELKLYGFVLIRGIRSCV | < -0.25 |
| LPPHCDGGGL | < -0.25 |
| LPPLRREVTTPSLRASGRPI | < -0.25 |
| LPPRARRANAKGAALVEKQL | < -0.25 |
| LPPYNL | < -0.25 |
| LPRACARARTARASQTEGIQ | < -0.25 |
| LPRCRGIGNSRSGHAPCNCP | < -0.25 |
| LPRFSLTVWIAKEGDDSGSR | < -0.25 |
| LPRGAWALS | < -0.25 |
| LPRGLRDSSLVRNWYLRFAK | < -0.25 |
| LPRNSVEVTPV | < -0.25 |
| LPRPAFYV | < -0.25 |
| LPRSLNRFRNLYLGI | < -0.25 |
| LPRSRCYWECTRPGKICEEG | < -0.25 |
| LPSGTPVEVVARWVDRQCLF | < -0.25 |
| LPSSIC | < -0.25 |
| LPTAVYVFVRTQSLQVP | < -0.25 |
| LPTRTAEVGKHRALLVY | -0.196 |
| LPTSERSGLWDQAVEALVPC | < -0.25 |
| LPVCVSCECHMI | < -0.25 |
